Reference: PubChem BioAssay AID1159578 (Peter MacCallum Cancer Centre, 2015)
Test: 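Knock-downs that alter how fast lymphatic endothelial cells migrate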 (primary screen). System: human lymphatic endothelial cells. Reagent: siRNA pool against human genes, 40 nM. Timing: 48 h after transfection. Measured: 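High-content imaging of dye-stained cells in a scratch assay measures filled wound area and nuclei per well; duplicate means given as ratio to mock and robust z-score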. Direction: migration robust z-score: higher = faster migration into the scratch; nuclei per well: higher = more cells in the well. Hit rule: 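Migration changed when robust z exceeds 2 or falls below -2 and mean nuclei number is at least 3300; otherwise not called changed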. Calls: active = migration changed; inactive = no migration change, or too few cells.
Here is one part, drawn at random, of about 18,000 deposited reagents. About 1,030 of all reagents (5.7%) were called active. 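Inactive calls also include pools with fewer than 3300 nuclei, whose migration was not assessed.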 Raw values vary from plate to plate and are shown uncorrected. Not all columns of the deposit are shown. No sequences are given here.

How did the screen score GPD1?
migration robust z-score: -0.98; migration class with cell-count check: migration z between -2 and 2; enough cells; nuclei per well, duplicate mean: 5384; Call: inactive

With TNFAIP2, what does the deposit list?
migration robust z-score: 1.12; migration class with cell-count check: migration z between -2 and 2; enough cells; nuclei per well, duplicate mean: 4893; Call: inactive

With KCNB1, how do the results read?
migration robust z-score: -1.66; migration class with cell-count check: migration z between -2 and 2; enough cells; nuclei per well, duplicate mean: 5452; Call: inactive

How did the screen score SLC35E3?
migration robust z-score: -0.04; migration class with cell-count check: migration z between -2 and 2; enough cells; nuclei per well, duplicate mean: 5642; Call: inactive

What did the screen give for PBX3?
migration robust z-score: 0.72; migration class with cell-count check: migration z between -2 and 2; enough cells; nuclei per well, duplicate mean: 5775; Call: inactive

For PALS1, what does the deposit list?
migration robust z-score: -0.4; migration class with cell-count check: migration z between -2 and 2; enough cells; nuclei per well, duplicate mean: 5643; Call: inactive

What is on record for RELL1?
migration robust z-score: 0.42; migration class with cell-count check: migration z between -2 and 2; enough cells; nuclei per well, duplicate mean: 5406; Call: inactive

For URM1, what was measured?
migration robust z-score: -1.07; migration class with cell-count check: migration z between -2 and 2; enough cells; nuclei per well, duplicate mean: 3460; Call: inactive

With MBD4, what was measured?
migration robust z-score: -1.82; migration class with cell-count check: migration z between -2 and 2; enough cells; nuclei per well, duplicate mean: 5419; Call: inactive

What is on record for ACER3?
migration robust z-score: 0.68; migration class with cell-count check: migration z between -2 and 2; enough cells; nuclei per well, duplicate mean: 6682; Call: inactive

How did the screen score CTIF?
migration robust z-score: 0.14; migration class with cell-count check: migration z between -2 and 2; enough cells; nuclei per well, duplicate mean: 6285; Call: inactive

How did the screen score ACOT11?
migration robust z-score: 0.06; migration class with cell-count check: migration z between -2 and 2; enough cells; nuclei per well, duplicate mean: 5820; Call: inactive

How did the screen score ST8SIA1?
migration robust z-score: -0.62; migration class with cell-count check: migration z between -2 and 2; enough cells; nuclei per well, duplicate mean: 4913; Call: inactive

What is on record for CIB3?
migration robust z-score: 0.24; migration class with cell-count check: migration z between -2 and 2; enough cells; nuclei per well, duplicate mean: 5824; Call: inactive

What is on record for CISD2?
migration robust z-score: -1.05; migration class with cell-count check: migration z between -2 and 2; enough cells; nuclei per well, duplicate mean: 4896; Call: inactive

How did the screen score PURA?
migration robust z-score: -0.28; migration class with cell-count check: migration z between -2 and 2; enough cells; nuclei per well, duplicate mean: 5590; Call: inactive

With PRKY, what was measured?
migration robust z-score: 0.46; migration class with cell-count check: migration z between -2 and 2; enough cells; nuclei per well, duplicate mean: 5514; Call: inactive

Which result is listed for RNF185?
migration robust z-score: 0.1; migration class with cell-count check: migration z between -2 and 2; enough cells; nuclei per well, duplicate mean: 4817; Call: inactive

Which result is listed for ZAN?
migration robust z-score: 0.36; migration class with cell-count check: migration z between -2 and 2; enough cells; nuclei per well, duplicate mean: 5892; Call: inactive

With NAALADL2, what was measured?
migration robust z-score: 0.88; migration class with cell-count check: migration z between -2 and 2; enough cells; nuclei per well, duplicate mean: 5360; Call: inactive

With SESN3, what does the deposit list?
migration robust z-score: -1.42; migration class with cell-count check: under 3300 nuclei; migration not judged; nuclei per well, duplicate mean: 2938; Call: inactive

What is on record for PTPRT?
migration robust z-score: 1.06; migration class with cell-count check: migration z between -2 and 2; enough cells; nuclei per well, duplicate mean: 6398; Call: inactive

For EDNRB, what does the deposit list?
migration robust z-score: 1.22; migration class with cell-count check: migration z between -2 and 2; enough cells; nuclei per well, duplicate mean: 6486; Call: inactive

Which result is listed for ADAMTS8?
migration robust z-score: 0.23; migration class with cell-count check: migration z between -2 and 2; enough cells; nuclei per well, duplicate mean: 5360; Call: inactive

For IDS, what was measured?
migration robust z-score: -0.9; migration class with cell-count check: migration z between -2 and 2; enough cells; nuclei per well, duplicate mean: 3585; Call: inactive

Which result is listed for C9?
migration robust z-score: -0.57; migration class with cell-count check: migration z between -2 and 2; enough cells; nuclei per well, duplicate mean: 5501; Call: inactive

What is on record for SLC6A9?
migration robust z-score: -0.39; migration class with cell-count check: migration z between -2 and 2; enough cells; nuclei per well, duplicate mean: 5473; Call: inactive

Targets above whose target name begins with R or r:
RELL1 — migration robust z-score = 0.42; migration class with cell-count check = migration z between -2 and 2; enough cells; nuclei per well, duplicate mean = 5406; Call = inactive
RNF185 — migration robust z-score = 0.1; migration class with cell-count check = migration z between -2 and 2; enough cells; nuclei per well, duplicate mean = 4817; Call = inactive
